Experimental findings from article PMC9613458 are described below.

Sequences of proteins named here, by UniProt entry; tags and fusion partners are left off.
UniProt Q9UJV9: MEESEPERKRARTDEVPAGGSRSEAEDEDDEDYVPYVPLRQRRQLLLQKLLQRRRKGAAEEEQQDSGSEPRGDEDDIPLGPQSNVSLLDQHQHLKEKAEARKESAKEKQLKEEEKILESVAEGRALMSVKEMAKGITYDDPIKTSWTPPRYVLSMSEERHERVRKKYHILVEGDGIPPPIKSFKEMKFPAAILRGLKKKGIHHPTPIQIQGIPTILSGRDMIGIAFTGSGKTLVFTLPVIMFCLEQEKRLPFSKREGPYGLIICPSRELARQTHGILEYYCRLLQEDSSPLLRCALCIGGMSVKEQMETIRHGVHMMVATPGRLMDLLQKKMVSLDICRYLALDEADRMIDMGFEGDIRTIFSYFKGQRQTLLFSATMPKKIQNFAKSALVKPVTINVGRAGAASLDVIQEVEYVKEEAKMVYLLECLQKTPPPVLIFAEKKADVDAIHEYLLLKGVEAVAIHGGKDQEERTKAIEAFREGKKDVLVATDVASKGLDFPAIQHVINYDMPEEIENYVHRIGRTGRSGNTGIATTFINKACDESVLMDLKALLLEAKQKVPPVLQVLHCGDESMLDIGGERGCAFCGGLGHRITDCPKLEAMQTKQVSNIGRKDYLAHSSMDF
UniProt Q99459: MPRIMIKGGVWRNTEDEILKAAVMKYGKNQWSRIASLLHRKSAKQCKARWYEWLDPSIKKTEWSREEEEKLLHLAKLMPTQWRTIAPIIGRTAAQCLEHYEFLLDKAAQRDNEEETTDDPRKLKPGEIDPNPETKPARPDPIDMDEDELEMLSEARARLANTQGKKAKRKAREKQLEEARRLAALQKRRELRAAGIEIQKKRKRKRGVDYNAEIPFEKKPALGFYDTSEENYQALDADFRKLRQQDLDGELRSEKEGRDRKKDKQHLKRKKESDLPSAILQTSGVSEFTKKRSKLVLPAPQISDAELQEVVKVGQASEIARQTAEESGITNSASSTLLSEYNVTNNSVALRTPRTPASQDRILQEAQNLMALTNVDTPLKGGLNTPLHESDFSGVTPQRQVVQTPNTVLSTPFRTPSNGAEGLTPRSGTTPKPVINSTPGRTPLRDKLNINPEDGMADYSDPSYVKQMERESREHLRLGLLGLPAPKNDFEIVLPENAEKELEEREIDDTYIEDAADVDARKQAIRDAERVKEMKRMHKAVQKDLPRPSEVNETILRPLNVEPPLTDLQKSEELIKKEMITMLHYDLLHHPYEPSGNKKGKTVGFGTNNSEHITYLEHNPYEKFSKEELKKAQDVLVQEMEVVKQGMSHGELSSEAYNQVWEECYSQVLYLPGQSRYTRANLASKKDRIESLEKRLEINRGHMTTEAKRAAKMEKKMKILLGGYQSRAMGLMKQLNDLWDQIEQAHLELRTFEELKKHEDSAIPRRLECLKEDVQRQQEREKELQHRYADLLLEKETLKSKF

Results are given in words; binding and its absence hold for the method and conditions named. In cells and extracts the contact can be indirect. Some binding calls cover weakened binding; strength is not graded here. Tags and fused reporters may be left off the sequences shown.

This test deals with FLAG-tagged DDX41 (human) (UniProt Q9UJV9). As to the kind of experiment: co-IP; Myc-tagged NTC components expressed with FLAG-tagged DDX41 in HEK293FT cells; immunoprecipitation with anti-FLAG antibody; blots with anti-FLAG, anti-Myc.

As for “Myc-tagged CDC5L (from UniProt Q99459 1-802)”, the binding result is “binds”.

B1: Myc-tagged CWC22 (protein, UniProt Q9HCG8 1-908)
chain: MKSSVAQIKPSSGHDRRENLNSYQRNSSPEDRYEEQERSPRDRDYFDYSRSDYEHSRRGRSYDSSMESRNRDREKRRERERDTDRKRSRKSPSPGRRNPETSVTQSSSAQDEPATKKKKDELDPLLTRTGGAYIPPAKLRMMQEQITDKNSLAYQRMSWEALKKSINGLINKVNISNISIIIQELLQENIVRGRGLLSRSVLQAQSASPIFTHVYAALVAIINSKFPQIGELILKRLILNFRKGYRRNDKQLCLTASKFVAHLINQNVAHEVLCLEMLTLLLERPTDDSVEVAIGFLKECGLKLTQVSPRGINAIFERLRNILHESEIDKRVQYMIEVMFAVRKDGFKDHPIILEGLDLVEEDDQFTHMLPLEDDYNPEDVLNVFKMDPNFMENEEKYKAIKKEILDEGDTDSNTDQDAGSSEEDEEEEEEEGEEDEEGQKVTIHDKTEINLVSFRRTIYLAIQSSLDFEECAHKLLKMEFPESQTKELCNMILDCCAQQRTYEKFFGLLAGRFCMLKKEYMESFEGIFKEQYDTIHRLETNKLRNVAKMFAHLLYTDSLPWSVLECIKLSEETTTSSSRIFVKIFFQELCEYMGLPKLNARLKDETLQPFFEGLLPRDNPRNTRFAINFFTSIGLGGLTDELREHLKNTPKVIVAQKPDVEQNKSSPSSSSSASSSSESDSSDSDSDSSDSSSESSSEESDSSSISSHSSASANDVRKKGHGKTRSKEVDKLIRNQQTNDRKQKERRQEHGHQETRTERERRSEKHRDQNSSGSNWRDPITKYTSDKDVPSERNNYSRVANDRDQEMHIDLENKHGDPKKKRGERRNSFSENEKHTHRIKDSENFRRKDRSKSKEMNRKHSGSRSDEDRYQNGAERRWEKSSRYSEQSRESKKNQDRRREKSPAKQK
On to B1, for which the binding result is recorded as “binds”.

B2: Myc-tagged CWC25 (protein, UniProt Q9NXE8 1-425)
chain: MGGGDLNLKKSWHPQTLRNVEKVWKAEQKHEAERKKIEELQRELREERAREEMQRYAEDVGAVKKKEEKLDWMYQGPGGMVNRDEYLLGRPIDKYVFEKMEEKEAGCSSETGLLPGSIFAPSGANSLLDMASKIREDPLFIIRKKEEEKKREVLNNPVKMKKIKELLQMSLEKKEKKKKKEKKKKHKKHKHRSSSSDRSSSEDEHSAGRSQKKMANSSPVLSKVPGYGLQVRNSDRNQGLQGPLTAEQKRGHGMKNHSRSRSSSHSPPRHASKKSTREAGSRDRRSRSLGRRSRSPRPSKLHNSKVNRRETGQTRSPSPKKEVYQRRHAPGYTRKLSAEELERKRQEMMENAKWREEERLNILKRHAKDEEREQRLEKLDSRDGKFIHRMKLESASTSSLEDRVKRNIYSLQRTSVALEKNFMKR
Take B2: the binding result is on record as “binds”.

B3: Myc-tagged CWC27 (protein, UniProt Q6UX04 1-472)
chain: MSNIYIQEPPTNGKVLLKTTAGDIDIELWSKEAPKACRNFIQLCLEAYYDNTIFHRVVPGFIVQGGDPTGTGSGGESIYGAPFKDEFHSRLRFNRRGLVAMANAGSHDNGSQFFFTLGRADELNNKHTIFGKVTGDTVYNMLRLSEVDIDDDERPHNPHKIKSCEVLFNPFDDIIPREIKRLKKEKPEEEVKKLKPKGTKNFSLLSFGEEAEEEEEEVNRVSQSMKGKSKSSHDLLKDDPHLSSVPVVESEKGDAPDLVDDGEDESAEHDEYIDGDEKNLMRERIAKKLKKDTSANVKSAGEGEVEKKSVSRSEELRKEARQLKRELLAAKQKKVENAAKQAEKRSEEEEAPPDGAVAEYRREKQKYEALRKQQSKKGTSREDQTLALLNQFKSKLTQAIAETPENDIPETEVEDDEGWMSHVLQFEDKSRKVKDASMQDSDTFEIYDPRNPVNKRRREESKKLMREKKERR
B3: the binding entry was “binds weakly”.

B4: Myc-tagged Yju2 (CCDC94) (protein, UniProt Q9BW85 1-323)
chain: MSERKVLNKYYPPDFDPSKIPKLKLPKDRQYVVRLMAPFNMRCKTCGEYIYKGKKFNARKETVQNEVYLGLPIFRFYIKCTRCLAEITFKTDPENTDYTMEHGATRNFQAEKLLEEEEKRVQKEREDEELNNPMKVLENRTKDSKLEMEVLENLQELKDLNQRQAHVDFEAMLRQHRLSEEERRRQQQEEDEQETAALLEEARKRRLLEDSDSEDEAAPSPLQPALRPNPTAILDEAPKPKRKVEVWEQSVGSLGSRPPLSRLVVVKKAKADPDCSNGQPQAAPTPGAPQNRKEANPTPLTPGASSLSQLGAYLDSDDSNGSN
As for B4, the binding result is recorded as “binds”.
